In publication PMC3986390:
Numbering of substitutions follows the chain as printed. These are yes or no findings as the source states them, for the method shown. Binding seen in cells or lysates may run through a third protein. Some results given as binding are weak or reduced against the parent protein; the word gives no strength. Sequences can lack the tags named with a protein.

Chains of the proteins cited; added tags and fusions are not shown.
UniProt P11142: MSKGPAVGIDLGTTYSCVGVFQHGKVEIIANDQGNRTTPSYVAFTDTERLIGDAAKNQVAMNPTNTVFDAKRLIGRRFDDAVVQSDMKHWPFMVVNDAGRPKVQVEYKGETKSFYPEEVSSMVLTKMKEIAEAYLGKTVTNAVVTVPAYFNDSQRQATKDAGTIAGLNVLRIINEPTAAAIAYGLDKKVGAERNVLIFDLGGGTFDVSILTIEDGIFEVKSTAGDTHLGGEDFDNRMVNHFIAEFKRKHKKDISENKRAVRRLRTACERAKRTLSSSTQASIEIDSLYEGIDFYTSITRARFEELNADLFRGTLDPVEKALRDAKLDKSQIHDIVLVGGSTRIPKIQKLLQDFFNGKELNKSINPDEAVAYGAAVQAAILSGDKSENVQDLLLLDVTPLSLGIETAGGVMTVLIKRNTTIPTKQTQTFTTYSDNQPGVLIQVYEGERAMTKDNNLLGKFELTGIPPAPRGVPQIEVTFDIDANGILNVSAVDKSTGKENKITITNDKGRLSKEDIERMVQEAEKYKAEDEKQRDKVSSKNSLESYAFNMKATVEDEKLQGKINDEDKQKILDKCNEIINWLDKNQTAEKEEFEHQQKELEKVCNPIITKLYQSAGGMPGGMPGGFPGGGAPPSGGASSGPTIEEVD

How the values were obtained:
[1] = target: T1, wild-type HA-tagged DNAJB12 (human) (UniProt Q9NXW2); test: co-IP; HeLa cells treated with 1 mM DSP cross-linker in PBS for two hours at 4°C, RIPA extracts, immunoprecipitated with anti-B12 monoclonal antibody and protein A/G beads, cross-links reversed, immunoblotted with anti-Hsc70 and anti-HA
T1 sequence: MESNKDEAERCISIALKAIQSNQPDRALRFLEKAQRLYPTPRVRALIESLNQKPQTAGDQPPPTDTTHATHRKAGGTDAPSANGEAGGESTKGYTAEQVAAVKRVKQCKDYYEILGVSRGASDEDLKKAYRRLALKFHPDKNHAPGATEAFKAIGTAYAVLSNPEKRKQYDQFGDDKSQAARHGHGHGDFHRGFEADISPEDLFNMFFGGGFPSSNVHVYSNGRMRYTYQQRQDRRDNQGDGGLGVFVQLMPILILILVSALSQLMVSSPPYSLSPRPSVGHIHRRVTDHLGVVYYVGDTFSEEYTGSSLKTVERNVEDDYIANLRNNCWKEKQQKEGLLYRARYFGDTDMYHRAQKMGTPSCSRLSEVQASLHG

[2] = target: T2, HA-tagged DNAJB12 H138Q J-domain mutant (human) (UniProt Q9NXW2); test: as above
T2 sequence: T1 sequence with H138Q

Substance: Hsc70 (from UniProt P11142 1-646)
- binding [1]: binds
- binding [2]: no binding
